Binding data for three substances are collected here from PMC3282686.

Amino acid sequences for entries named in this document (tags omitted).
UniProt Q9UKV8: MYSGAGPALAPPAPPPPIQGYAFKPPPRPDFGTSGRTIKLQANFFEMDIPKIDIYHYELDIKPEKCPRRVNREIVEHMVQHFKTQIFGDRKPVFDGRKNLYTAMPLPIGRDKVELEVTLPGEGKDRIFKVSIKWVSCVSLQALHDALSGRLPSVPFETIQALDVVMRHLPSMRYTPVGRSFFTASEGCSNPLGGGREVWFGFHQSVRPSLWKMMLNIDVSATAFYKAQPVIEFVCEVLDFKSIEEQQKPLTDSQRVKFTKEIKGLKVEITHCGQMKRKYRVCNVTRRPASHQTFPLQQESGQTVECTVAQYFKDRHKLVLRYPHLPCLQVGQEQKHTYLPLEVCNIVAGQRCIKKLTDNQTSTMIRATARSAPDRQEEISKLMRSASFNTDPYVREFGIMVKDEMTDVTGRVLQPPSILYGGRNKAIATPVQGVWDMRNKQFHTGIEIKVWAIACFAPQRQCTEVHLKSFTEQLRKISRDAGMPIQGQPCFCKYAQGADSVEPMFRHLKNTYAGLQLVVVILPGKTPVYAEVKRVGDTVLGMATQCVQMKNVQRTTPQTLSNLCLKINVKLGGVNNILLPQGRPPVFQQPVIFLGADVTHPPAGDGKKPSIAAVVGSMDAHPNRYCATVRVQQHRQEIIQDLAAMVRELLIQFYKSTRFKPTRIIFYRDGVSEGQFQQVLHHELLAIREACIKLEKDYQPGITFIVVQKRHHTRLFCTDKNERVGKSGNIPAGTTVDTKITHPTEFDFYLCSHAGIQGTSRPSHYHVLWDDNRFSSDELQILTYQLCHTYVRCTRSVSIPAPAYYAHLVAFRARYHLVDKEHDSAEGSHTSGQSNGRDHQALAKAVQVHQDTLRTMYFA

Assay in all cases: co-IP; endogenous proteins of cancer cells transfected with siH3 or siScb; precipitated with antibodies specific for RNA Pol II, TFIIB, Ago1 or Ago2 (unspecific IgG as control) on protein A-Sepharose beads; bound proteins released by boiling in SDS-PAGE loading buffer and analysed by western blot
Test [1] concerns the target transcription factor II B (human (endogenous in PC-3, EJ and SGC-7901)) (UniProt Q00403).
Test [2] deals with Argonaute 2 (human (endogenous in PC-3, EJ and SGC-7901)) (UniProt Q9UKV8).
Test [3] deals with Argonaute 1 (human (endogenous in PC-3, EJ and SGC-7901)) (UniProt Q9UL18).

Results are given in words; binding and its absence hold for the method and conditions named. Binding seen in cells or lysates may run through a third protein.

With Argonaute 1 (from UniProt Q9UL18 1-857), the binding result in test [1] was “no binding”. With Argonaute 2 (from UniProt Q9UKV8 1-859), in test [1], the binding result was “no binding”. Take “transcription factor II B (from UniProt Q00403 1-316)”: the binding entry in test [2] and in test [3] was “no binding” in each case.
